Test results from publication PMC12449474.
No constants are given. Whether binding was seen depends on the method and setting. In cells and extracts the contact can be indirect. Some entries that bind do so weakly or less than the wild type.

The chains behind the UniProt entries cited, without tags or fusion partners. Residues count along the entry.
UniProt Q9BPX6, residues 34-476: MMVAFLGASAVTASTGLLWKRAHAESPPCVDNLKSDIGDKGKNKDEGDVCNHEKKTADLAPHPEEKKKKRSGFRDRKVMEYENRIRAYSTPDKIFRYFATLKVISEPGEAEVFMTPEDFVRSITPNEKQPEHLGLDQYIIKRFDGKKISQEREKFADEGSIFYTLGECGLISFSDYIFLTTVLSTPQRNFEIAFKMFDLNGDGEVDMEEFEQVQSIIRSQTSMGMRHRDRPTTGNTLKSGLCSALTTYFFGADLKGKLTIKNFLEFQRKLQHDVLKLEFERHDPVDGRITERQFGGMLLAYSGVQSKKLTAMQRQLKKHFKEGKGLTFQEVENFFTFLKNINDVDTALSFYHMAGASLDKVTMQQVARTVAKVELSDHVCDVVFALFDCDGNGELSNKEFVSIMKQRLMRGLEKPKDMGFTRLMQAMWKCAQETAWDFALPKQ

Target: HA-tagged MICU1 (UniProt Q9BPX6)
Experiment: co-IP; HA-tagged MICU1 precipitated, endogenous TMBIM5 detected by immunoblot; empty vector as control; conditions not described

B1: Transmembrane Bax-Inhibitor Motif (TMBIM)-containing protein 5 (TMBIM5), endogenous (protein, UniProt Q9H3K2 46-345)
chain: ATKTRIGIRRGRTGQELKEAALEPSMEKIFKIDQMGRWFVAGGAAVGLGALCYYGLGLSNEIGAIEKAVIWPQYVKDRIHSTYMYLAGSIGLTALSAIAISRTPVLMNFMMRGSWVTIGVTFAAMVGAGMLVRSIPYDQSPGPKHLAWLLHSGVMGAVVAPLTILGGPLLIRAAWYTAGIVGGLSTVAMCAPSEKFLNMGAPLGVGLGLVFVSSLGSMFLPPTTVAGATLYSVAMYGGLVLFSMFLLYDTQKVIKRAEVSPMYGVQKYDPINSMLSIYMDTLNIFMRVATMLATGGNRKK
binding: binds
